Experimental data: PubChem BioAssay AID686937 (Drosophila RNAi Screening Center, 2013)

Assay: 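Genes whose loss weakens secretory pathway function in fly cells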 (primary screen)
System: Drosophila S2 cells expressing secreted horseradish peroxidase
Reagent: long dsRNA against Drosophila genes
Time to read-out: about 5.5 days (5 days dsRNA, then 12 h reporter induction)
Challenge: reporter expression induced after 5 days of dsRNA, read 12 h later; inducer not stated
Measured: 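Chemiluminescent measurement of peroxidase in the medium 12 h after reporter induction, following 5 days of dsRNA, given as a z-score per plate; higher means more secretion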
Direction: z-score: higher = more reporter secreted into medium
The deposit covers about 23,000 reagents; this is an unselected part of those with a known target gene and a result. 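Reduced-secretion tags in replicate 1 do not always agree with the z-scores; no criterion for assigning the tags was given.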 Names joined by + are all predicted targets of the reagent. Reagent sequences are not shown. Not stated in the record: the amount of reagent.

no.	target gene	dsRNA	z-score, replicate 1	z-score, replicate 2	z-score, replicate 3	z-score, replicate 4	phenotype, replicate 1
1	rost	DRSC03603	0.33	0.35			
2	CG14391	DRSC14850	0.2	0.32			
3	Nepl15	DRSC15630	0.36	0.15			
4	nompC	DRSC03581	0.29	0.32			
5	CG12883	DRSC14570	0.21	0.33			
6	CR33294	DRSC22950	0.27	-0.42			
7	Flo2	DRSC19062	-0.27	0.51			
8	Flo2	DRSC20244	0.09	0.14			
9	beat-IIIc	DRSC02438	0.72	0.1			
10	beat-IIIc	DRSC02949	-0.17	0.02			
11	His1:CG33816 + His1:CG33828 + His1:CG33819 + 21 more	DRSC21266	-0.95	-0.32			
12	CG31493	DRSC12583	0.19	0.17			
13	kug	DRSC10911	0.24	-0.11			
14	CG41520	DRSC21102	0.42	0.35			
15	CG41520	DRSC21103	0.02	0.25			
16	Bili	DRSC14405	0.09	0.08			
17	Mccc1	DRSC15417	0.13	0.27			
18	CG14841	DRSC14965	0.6	-0.54			
19	CG33080	DRSC18080	0.38	0.44			
20	CG33080	DRSC18081	0.38	0.41			
21	CG33080	DRSC18285	0.26	0.43			
22	kuk	DRSC15730	0.18	0.21			
23	CG33475	DRSC22943	-0.84	-0.39			
24	CG31268	DRSC13203	0.17	0.39			
25	Pop4	DRSC10955	0.22	0.27			
26	Nadk2	DRSC07072	0.23	0.27			
27	Lcp65Ae	DRSC11212	0.27	-0.06			
28	CG31021	DRSC22319	-0.76	-0.16			
29	Cdc37	DRSC08648	0.08	0.28			
30	kon	DRSC02033	0.56	0.35			
31	CG6729	DRSC02984	0.49	0.48	0.39	0.29	
32	CG6729	DRSC22793	0.5	-0.85			
33	CG10435	DRSC14246	0.72	0.65			
34	CG31975 + ovm	DRSC00323	-0.05	-0.3			
35	tmod	DRSC13993	0.32	0.67			
36	tmod	DRSC14314	-0.43	-1.45			
37	tmod	DRSC15076	0.28	0.46			
38	tmod	DRSC17062	0.43	0.45			
39	Mtch	DRSC08679	0.35	0.3			
40	Sgp	DRSC02195	0.3	0.36			
41	Grx1t	DRSC04530	-0.16	0.11			
42	CG16779	DRSC15153	0.04	0.3			
43	CG33170	DRSC11854	0.44	0.41			
44	CG33170	DRSC22366	0.02	0.05			
45	ms(2)34Fe	DRSC01905	-0.17	0.29			
46	CG5114	DRSC10482	0.01	0.23			
47	Sr-CII	DRSC07557	-0.01	0.17			
48	CG11679	DRSC19415	0.33	0.19			
49	CG42869 + Sfp93F	DRSC13505	0.3	-0.45			
50	Dscam4	DRSC08911	0.23	0.08			
51	Dscam4	DRSC08913	0.66	0.46			
52	Dscam4	DRSC10031	0.11	0.32			
53	Dscam4	DRSC10329	-0.76	0.01			
54	Dscam4	DRSC10765	0.43	0.56			
55	Usf	DRSC18129	0.4	0.29			
56	Pfdn6	DRSC10915	0.03	-0.33			
57	Mst77F	DRSC11871	0.33	0.44			
58	CG1246	DRSC08275	0.56	0.14			
59	TTLL4A	DRSC02528	0.22	0.2			
60	CASK	DRSC14588	0.17	0.35	0.51	-0.02	
61	CASK	DRSC16597	0.32	-0.56			
62	CASK	DRSC16598	0.29	0.37			
63	CASK	DRSC21917	0.66	0.02			
64	Targ2	DRSC21970	0.48	-0.06			
65	CG15531	DRSC15068	0.34	0.08			
66	Nplp2	DRSC09824	0.07	0.11			
67	otk	DRSC07658	0.37	0.46			
68	Acph-1	DRSC14103	0.06	-0.44			
69	CG10916	DRSC06012	0.3	0.58			
70	CG42537	DRSC12519	0.42	0.46			
71	BEAF-32 + CG42254 (retired record)	DRSC05503	0.2	-0.05			
72	hbt + CG43779	DRSC02503	1.04	0.32			
73	CG6479	DRSC10647	0.01	-0.03			
74	CG32066	DRSC10652	0.41	0.15			
75	CG32066	DRSC10653	0.44	0.68			
76	Rad23	DRSC17167	0.23	0.15			
77	Sam-S	DRSC00758	-1.89	-1.97			reduced secretion
78	Boh1	DRSC14487	0.26	0.37			
79	CG6230	DRSC01989	0.31	0.19			
80	Obp58b	DRSC04161	0.22	0.01			
81	CG30412	DRSC04564	0.6	0.37	0.58	0.25	
82	RpL23	DRSC04648	-6.25	-4.48			reduced secretion
83	CG18428	DRSC15326	0.33	0.29			
84	CG9717	DRSC16543	0.26	0.4			
85	Pex2	DRSC10770	0.36	0.37			
86	Uqcc1 + CG9948	DRSC09690	-0.24	0.14			
87	CG2258	DRSC18222	0.43	0.44			
88	CG7536	DRSC20050	0.31	0.32			
89	SF1	DRSC16844	-0.67	-0.82			
90	CG17134	DRSC02583	-0.04	-0.01			
91	Prosalpha6T	DRSC02873	-0.02	0.22			
92	Wbp2	DRSC09821	-0.42	0.86			
93	CG17129	DRSC08508	0.15	-0.2			
94	Tsp42Ei	DRSC06189	0.31	0.35			
95	ATP7	DRSC19819	0.38	0.62			
96	CG5676	DRSC02875	-0.11	-0.06			
97	CG11816	DRSC19428	-0.13	0.78			
98	gbb	DRSC04687	0.36	0.36			
99	CG10602	DRSC02075	0.41	0.26			
100	CG13634	DRSC14635	0.26	-0.61			
101	Alp6	DRSC06710	0.49	0.44			
102	Vml	DRSC17695	-0.8	0.46			
103	Vml	DRSC18529	-0.63	-0.35			
104	moon	DRSC19497	0.14	0.52			

17 successive reagents from above:
no.	target gene	dsRNA	z-score, replicate 1	z-score, replicate 2	z-score, replicate 3	z-score, replicate 4	phenotype, replicate 1
39	Mtch	DRSC08679	0.35	0.3			
40	Sgp	DRSC02195	0.3	0.36			
41	Grx1t	DRSC04530	-0.16	0.11			
42	CG16779	DRSC15153	0.04	0.3			
43	CG33170	DRSC11854	0.44	0.41			
44	CG33170	DRSC22366	0.02	0.05			
45	ms(2)34Fe	DRSC01905	-0.17	0.29			
46	CG5114	DRSC10482	0.01	0.23			
47	Sr-CII	DRSC07557	-0.01	0.17			
48	CG11679	DRSC19415	0.33	0.19			
49	CG42869 + Sfp93F	DRSC13505	0.3	-0.45			
50	Dscam4	DRSC08911	0.23	0.08			
51	Dscam4	DRSC08913	0.66	0.46			
52	Dscam4	DRSC10031	0.11	0.32			
53	Dscam4	DRSC10329	-0.76	0.01			
54	Dscam4	DRSC10765	0.43	0.56			
55	Usf	DRSC18129	0.4	0.29			
